Negatives hold for the conditions tested. For part of these data: Weaker means in comparison with the reference protein, sequence or condition of that experiment. For part of these data: For at least one entry, the source does not settle the construct or the ends of the probe.

Experiment in all cases: binding assay
One series deals with alpha-synuclein monomer (UniProt P37840). The settings on record: aptamer blotting, purified recombinant protein, protein details: expressed from pET-28a(+) in E. coli BL21(DE3), label: 5'-FITC, folded or branched DNA.
Series [1] addresses amyloid beta 1-40 monomer (UniProt P05067). The settings on record: aptamer blotting, protein details: Peptide Institute peptide, folded or branched DNA.
The next series has as its target amyloid beta 1-40 fibril (UniProt P05067). The settings on record: aptamer blotting, protein details: Peptide Institute peptide, folded or branched DNA.
In the next series the test system is luciferase. The settings on record: aptamer blotting, 5 pmol protein; purified recombinant protein; protein details: recombinantly produced in E. coli; label: 5'-FITC; folded or branched DNA.
The next series concerns IgG antibody. The settings on record: aptamer blotting, 5 pmol protein; protein details: Sigma Aldrich; label: 5'-FITC; folded or branched DNA.
[2] abbreviates: 200 nM, label: FITC via 18-mer complementary strand at 3' end.
[3] abbreviates: 200 nM, spot seen, oligomer spot stronger, label: FITC via 18-mer complementary strand at 3' end.

Turning to GCGGTAGGGTGTGAGCGGAAGGGG [T-SO602], the binding result in the series with alpha-synuclein monomer (100 nM) is reported as “no binding”; in series [1] (500 nM, label: 5'-FITC), “no binding”; in the series with amyloid beta 1-40 fibril (500 nM, label: 5'-FITC) it was “no binding”.
GCCTGTGGTGTTGGGGCGGGTGCG [T-SO508]: the binding result was “no binding” in the series with alpha-synuclein monomer (100 nM); “no binding” in series [1] (500 nM, label: 5'-FITC); “no binding” with amyloid beta 1-40 fibril (500 nM, label: 5'-FITC).
CGAGGGGCGTCTGGGAGTGGTCGG [T-SO554]: the binding result with alpha-synuclein monomer (100 nM) is given as “no binding”; in series [1] (500 nM, label: 5'-FITC), “no binding”; with amyloid beta 1-40 fibril (500 nM, label: 5'-FITC), “no binding”.
In the case of CGGGGGGCCTGAGGGGGGGAGGGA [3G4], the results for the binding result (in series [1] (setting [2]); with amyloid beta 1-40 fibril (setting [3])) were “no binding” and “binds more weakly”, respectively.
Regarding GGTGGCTGGAGGGGGCGCGAACG [T-SO517], the binding result in the series with alpha-synuclein monomer (100 nM) is recorded as “no binding”; in the series with luciferase, “no binding”; with IgG antibody it was “no binding”; in series [1] (500 nM, label: 5'-FITC) it was “no binding”; with amyloid beta 1-40 fibril (500 nM, label: 5'-FITC) it was “no binding”.
GGTGCGGCGGGACTAGTGGGTGTG [T-SO530]: the binding result in the series with alpha-synuclein monomer (100 nM) is listed as “no binding”; in series [1] (500 nM, label: 5'-FITC), “no binding”; in the series with amyloid beta 1-40 fibril (500 nM, label: 5'-FITC), “no binding”.
As for “AAAAACAGGGGTGGGCAAAGGGCGGTGGTGTTTTTCAGGGGTGGGCAAAGGGCGGTGGTG [504W]”, in the series with alpha-synuclein monomer (same specificity as T-SO504, variant of T-SO504), the binding result was “no binding”.
As for CGAGGGGCGTCTGGGGGGGAGGGA [2G16], the values for the binding result (in series [1] (setting [2]); in the series with amyloid beta 1-40 fibril (setting [3])) were “no binding” and “binds more weakly”, respectively.
Consider CAGGGGTGGGCAAAGGGCGGTGGTG [T-SO504], for which the binding result with alpha-synuclein monomer (100 nM) is “no binding”; in series [1] (500 nM, label: 5'-FITC) it was “no binding”; with amyloid beta 1-40 fibril (500 nM, label: 5'-FITC), “no binding”.
As for GCGTGTGGGGCTTGGGCAGCTGGG [T-SO552], the binding result with alpha-synuclein monomer (100 nM) is “no binding”; in series [1] (500 nM, label: 5'-FITC), “no binding”; in the series with amyloid beta 1-40 fibril (500 nM, label: 5'-FITC) it was “no binding”.
With GGGTCGGCTGTCCGTGGGTGGGGA [T-SO606], the binding result with alpha-synuclein monomer (100 nM) is on record as “no binding”; with luciferase, “no binding”; in the series on IgG antibody, “no binding”; in series [1] (500 nM, label: 5'-FITC), “no binding”; with amyloid beta 1-40 fibril (500 nM, label: 5'-FITC), “no binding”.

The values are drawn from patent US20140072986.
